Laboratory results reported in PubChem BioAssay AID504444 (National Center for Advancing Translational Sciences (NCATS), 2011).
Among all 360,000 compounds or so, about 7,500 (2.1%) were called active. Inconclusive results, whose numbers are uncertain, are shown with a selection of clear calls. Calls come from the whole dose curve; as a rule, active = well fitted inhibition curve with a large enough effect; inconclusive = small, poorly fitted or top-dose-only effect, or effect the other way; inactive = flat fitted curve, though single readings scatter. Potencies beside an inconclusive call are fits to weak or partial responses and may not hold up.

Experiment: Nrf2 qHTS screen for inhibitors; note: nearly all actives have a fitted effect of over 60% in size
Conditions: A549 ARE-Fluc reporter, luciferase luminescence, 18-24 h; activity change, negative = inhibition: at 46 µM (top of the series)
Outline: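 A549 ARE_Fluc cells (5000/well, 5% FBS OPTI-MEM) pre-incubated 2 h, then treated with compounds 18-24 h at 37C/5% CO2 in concentration-response. CellTiter-Fluor viability read first; BugLite luciferase luminescence after 15 min at room temperature gives Nrf2 activity.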
% is set by controls: 0 for no effect and ±100 for the full control effect; potency is the fitted concentration of half-maximal effect.

Q: For `Cc1cc(C)cc(N(CC(=O)NCCc2ccc(Cl)cc2)S(=O)(=O)c2c(C)noc2C)c1`, which “activity change, negative = inhibition” value is on record?
A: inactive: -2.66%

Q: Which Potency does the source give for `C=C(C)CNC(=S)N/N=C/c1ccc(N2CCOCC2)cc1` here?
A: inconclusive: 2.31 µM [activator, single point]

Q: Which Potency does the source give for `O=C(Nc1cccc(S(=O)(=O)C(F)F)c1)c1ccc(Cl)c(S(=O)(=O)N2CCOCC2)c1` here?
A: inconclusive: 23.1 µM [falling, single point]

Q: Which Potency does the source give for `O=C(Nc1ccccc1)c1ccc2c(c1)OCCCO2` here?
A: inconclusive: 0.092 µM [activator, full curve, poor fit]

Q: With `O=C(CCCn1c(=S)[nH]c2ccsc2c1=O)Nc1ccc2c(c1)OCCO2` as the compound, how does the Potency read?
A: inconclusive: 4.11 µM [activator, partial curve, poor fit]

Q: Which “activity change, negative = inhibition” value does the source give for `CC(=O)Nc1ccc(C2Nc3ccccc3C(=O)N2C2CCCCC2)cc1` (configuration not stated) here?
A: inactive: 8.77%

Q: For `CCC1(C(=O)OC)NC(c2ccco2)C2C(=O)N(c3ccccc3)C(=O)C21` (configuration not stated), which Potency is on record?
A: inconclusive: 25.9 µM [activator, single point]

Q: Which Potency does the source give for `CN1CCN(C(=O)c2cnn(-c3ccc(F)cc3F)c2C2CCN(C(=O)OC(C)(C)C)CC2)CC1` here?
A: inconclusive: 16.4 µM [activator, partial curve, poor fit]

Q: Which Potency does the source give for `CC(C)C(C(=O)Nc1ccncc1)c1ccc(Cl)cc1` (configuration not stated) here?
A: inconclusive: 23.1 µM [falling, single point]

Q: With `COc1ccc(CNC(=O)CSc2nnc(C)c3c(C)n(-c4ccccc4)nc23)c(OC)c1` as the compound, how does the Potency read?
A: inconclusive: 29.1 µM [falling, partial curve, poor fit]

Q: For `O=C(CCc1ccc(S(=O)(=O)N2CCOCC2)cc1)Nc1ccc2ccccc2c1`, which Potency is on record?
A: inconclusive: 29.1 µM [falling, single point]

Q: For `COc1cccc(N2CCN(C(=O)c3ccc(CS(=O)Cc4ccc(C)cc4)o3)CC2)c1` (configuration not stated), which “activity change, negative = inhibition” value is on record?
A: inactive: -20.2%

Q: For `O=C1c2ccccc2CCC12N=NCC2c1ccccc1` (configuration not stated), which Potency is on record?
A: inconclusive: 5.17 µM [falling, full curve, poor fit]

Q: With `O=C(Cc1ccc(Br)cc1)N1CCCCCC1` as the compound, how does the Potency read?
A: inconclusive: 23.1 µM [activator, partial curve, poor fit]

Q: For `CC(=O)c1ccc2c(c1)CC1(C2)Cc2cc3c(cc2C1)C(=O)CC3` (configuration not stated), which Potency is on record?
A: inconclusive: 29.1 µM [falling, single point]

Q: For `N#C/C(=C\c1c(N2CCCCC2)nc2ccccn2c1=O)C(=O)NC1CCS(=O)(=O)C1` (configuration not stated), which Potency is on record?
A: inconclusive: 6.51 µM [activator, single point]

Q: For `COC(=O)c1ccsc1NC(=O)CCS(=O)(=O)c1ccccc1`, which “activity change, negative = inhibition” value is on record?
A: inactive: -14.6%

Q: With `COc1ccc(CCNC(=O)c2cnc3scc(C)n3c2=O)cc1OC` as the compound, how does the Potency read?
A: inconclusive: 13 µM [falling, partial curve, poor fit]

Q: Which Potency does the source give for `Cc1cc(C)c2nc3sc(C(=O)N4CCOCC4)c(N)c3cc2c1` here?
A: inconclusive: 29.1 µM [activator, single point]

Q: For `O=C(Nc1cccc([N+](=O)[O-])c1)c1[nH]ncc1Cl`, which Potency is on record?
A: inconclusive: 2.31 µM [activator, full curve]

Q: For `Cc1ccc(N=C/C(C(=O)C(F)(F)F)=C(\O)c2cccs2)cc1`, which Potency is on record?
A: inconclusive: 4.11 µM [activator, partial curve]

Q: For `CCc1ccc(/C=C2/SC(=S)N(CCC(=O)NCCCN3CCOCC3)C2=O)cc1`, which Potency is on record?
A: inconclusive: 18.4 µM [activator, partial curve, poor fit]

Q: For `CC1=C(C(=O)c2ccccc2)C(c2cn(-c3ccccc3)nc2-c2ccc(Cl)cc2)NC(=S)N1` (configuration not stated), which Potency is on record?
A: inconclusive: 20.6 µM [falling, single point]

Q: Which Potency does the source give for `O=C(CN(C(=O)CSc1nnc(COc2ccccc2)o1)c1ccc(F)cc1)NC1CCCC1` here?
A: inconclusive: 5.17 µM [falling, partial curve, poor fit]

Q: With `COc1cc(C(=O)NNC(=S)NC(=O)c2ccc(Cl)cc2)cc(OC)c1OC` as the compound, how does the Potency read?
A: inconclusive: 16.4 µM [falling, single point]

Q: For `O=C(CCN1C(=O)/C(=C/c2ccccc2F)SC1=S)N[C@@H](CO)Cc1ccccc1`, which Potency is on record?
A: inconclusive: 23.1 µM [activator, single point]

Q: For `O=C(COc1ccc(Cl)cc1)N1CCN(C(=O)c2ccccc2F)CC1`, which Potency is on record?
A: inconclusive: 29.1 µM [falling, single point]

Q: Which Potency does the source give for `Oc1ccc(-c2nc3ccc(Cl)cn3c2Nc2ccc(Cl)cc2)cc1` here?
A: inconclusive: 0.411 µM [activator, full curve, poor fit]

Q: For `COc1ccc(Cn2ccc3nc(C)c(C(=O)NCc4ccc(SC)cc4)cc3c2=O)cc1`, which “activity change, negative = inhibition” value is on record?
A: inactive: -23.2%

Q: For `Cc1cccc(NC(=O)COc2ccc(Br)cc2C)n1`, which Potency is on record?
A: inconclusive: 20.6 µM [activator, partial curve]

Q: Which Potency does the source give for `CCOc1ccc(NS(=O)(=O)c2ccc(C(=O)N3CCCCC3)cc2)cc1` here?
A: inconclusive: 18.4 µM [falling, partial curve]

Q: Which Potency does the source give for `CC1CC(C)CN(C(=O)Cn2nnc(-c3ccccc3)n2)C1` (configuration not stated) here?
A: inconclusive: 0.92 µM [activator, full curve, poor fit]

Q: Which Potency does the source give for `Cn1c(=O)c2c(nc(N3CCN(c4ccc([N+](=O)[O-])cc4)CC3)n2C)n(C)c1=O` here?
A: inconclusive: 20.6 µM [falling, single point]

Q: With `COCCCn1c(C(=O)NCCN2CCOCC2)cc2c(=O)n3cccc(C)c3nc21` as the compound, how does the “activity change, negative = inhibition” value read?
A: inactive: -4.92%

Q: For `Cc1ccc(NC(=O)c2ccc(CN3CC(=O)N4CCCCC4C3=O)cc2)c(Cl)c1` (configuration not stated), which Potency is on record?
A: inconclusive: 29.1 µM [activator, single point]

Q: Which Potency does the source give for `Cc1cc(C)n(-c2nnc3c4ccccc4n(C)c3n2)n1` here?
A: inconclusive: 4.61 µM [activator, full curve]

Q: For `COc1ccc(CCNC(=O)/C(C#N)=C/c2cccc(OCc3ccccc3)c2)cc1OC`, which Potency is on record?
A: inconclusive: 18.4 µM [falling, single point]

Q: With `COc1ccc(OC)c(CC(NC(C)=O)C(=O)NC2CCN(c3nnnn3-c3ccccc3)CC2)c1` (configuration not stated) as the compound, how does the Potency read?
A: inconclusive: 29.1 µM [falling, single point]

Q: For `CC(=O)c1ccc(-c2ccc(C(=O)Nc3nc(-c4ccccn4)cs3)o2)cc1`, which “activity change, negative = inhibition” value is on record?
A: inactive: -5.58%

Q: With `CCOC(=O)[C@H]1[C@H]2COc3ccc(Cl)cc3[C@@H]2N2C(=O)CN(Cc3ccc(Cl)cc3)C(=O)[C@@]12C` as the compound, how does the Potency read?
A: inconclusive: 18.4 µM [falling, single point]

Q: Which Potency does the source give for `O=C(CC(c1cccs1)N1Cc2ccccc2C1=O)Nc1ccc(F)cc1` (configuration not stated) here?
A: inconclusive: 0.291 µM [activator, full curve, poor fit]

Q: With `CC(=O)c1cccc(OCc2cc(C(=O)N3C[C@H]4CC[C@H]3C4)no2)c1` as the compound, how does the Potency read?
A: inconclusive: 1.84 µM [activator, full curve]

Q: With `O=C(NCCCN1CCCC1=O)c1cc(-c2ccc(F)cc2)nc2ccccc12` as the compound, how does the Potency read?
A: inconclusive: 25.9 µM [activator, single point]

Q: For `Cc1ccc([C@H]2C(C(=O)O)=CC[C@@H](c3ccc(Cl)c(Cl)c3)N2S(=O)(=O)c2ccc(C)cc2)cc1`, which Potency is on record?
A: inconclusive: 23.1 µM [falling, single point]

Q: For `O=S(=O)(NCCc1csc(-c2ccc(C(F)(F)F)cc2)n1)c1ccc2c(c1)OCCO2`, which Potency is on record?
A: inconclusive: 29.1 µM [falling, partial curve, poor fit]

Q: With `Cc1cc(C(=O)COC(=O)CC2Sc3ccccc3NC2=O)c(C)n1-c1ccccc1` (configuration not stated) as the compound, how does the Potency read?
A: inconclusive: 8.2 µM [activator, partial curve]

Q: Which Potency does the source give for `O=C(Nc1ccc2[nH]c3c(c2c1)CCCC3)c1ccco1` here?
A: inconclusive: 9.2 µM [activator, partial curve, poor fit]

Q: Which Potency does the source give for `Cc1ccc(C(=O)O/N=C(\N)c2ccc(Br)cc2)cc1` here?
A: inconclusive: 25.9 µM [activator, single point]

Q: With `O=C1CCCN1CCCNC(=S)Nc1ccc(Br)cc1Cl` as the compound, how does the “activity change, negative = inhibition” value read?
A: inactive: 7.33%

Q: For `O=S(=O)(c1ccc(OC(F)(F)F)cc1)N1CCN(c2nc(-c3cccs3)nc3ccccc23)CC1`, which “activity change, negative = inhibition” value is on record?
A: inactive: -21.8%

Q: With `COc1ccc(-c2nc3ccccc3c(=O)[nH]2)cc1` as the compound, how does the Potency read?
A: inconclusive: 5.8 µM [activator, partial curve]

Q: For `COC(=O)c1cc(Nc2cc(C)c3c(O)cccc3n2)cc(C(=O)OC)c1`, which Potency is on record?
A: inconclusive: 20.6 µM [falling, single point]

Q: With `Cc1noc(C)c1C(=O)Nc1nc(C23CC4CC(CC(C4)C2)C3)cs1` as the compound, how does the Potency read?
A: inconclusive: 13 µM [falling, single point]

Q: Which Potency does the source give for `Cc1cccc(C(=O)NC(=S)NNC(=O)Cc2ccccc2)c1` here?
A: inconclusive: 29.1 µM [falling, single point]

Q: For `Cc1ccc(C)c(CN2C(=O)c3ccccc3S(=O)c3ccc(C(=O)N4CCCCC4)cc32)c1` (configuration not stated), which Potency is on record?
A: inconclusive: 16.4 µM [falling, partial curve]

Q: With `COc1ccc(C(=O)Nc2ccc(C(=O)N3CCOCC3)cc2)cc1OC` as the compound, how does the Potency read?
A: inconclusive: 25.9 µM [activator, single point]

Q: With `O=c1[nH]cnc2c1ncn2[C@H]1C[C@H](O)[C@@H](CO)O1` as the compound, how does the “activity change, negative = inhibition” value read?
A: inactive: 25.9%

Q: With `COc1ccc(NC(=O)Nc2c(C)n(C)n(-c3ccccc3)c2=O)cc1` as the compound, how does the Potency read?
A: inconclusive: 20.6 µM [activator, partial curve, poor fit]

Q: Which Potency does the source give for `CCN(CC)CCNC(=O)c1cc2c(=O)n(C)c3ccccc3c2s1` here?
A: inconclusive: 29.1 µM [activator, single point]

Q: Which Potency does the source give for `O=C(OCn1cncn1)c1ccc(Cl)cc1Cl` here?
A: inconclusive: 7.31 µM [falling, partial curve]

Q: Which “activity change, negative = inhibition” value does the source give for `O=C(CN1C(=O)COc2ccc(S(=O)(=O)N3CCCCCC3)cc21)N1CCN(c2ccc(Cl)cc2)CC1` here?
A: inactive: 9.19%

Q: Which “activity change, negative = inhibition” value does the source give for `COc1ccc(CCNC(=O)C(=O)NCc2ccccc2)cc1OC` here?
A: inactive: -4.46%
